# PubChem BioAssay AID1259415 (National Center for Advancing Translational Sciences (NCATS), 2018)
# The whole screen tested about 410,000 compounds, of which about 18,000 (4.4%) were called active. The shares of active, inactive and inconclusive entries below differ from those in the screen. Rule as the data show it: active = activity change below about -60%; inconclusive = no clear call, values can overlap the other calls; inactive = above about -39%.
# Experiment: qHTS Assay for inhibitors of the human cytomegalovirus (HCMV)
# Settings: HFF cells, HCMV-luciferase reporter, 72 h; at 57.5 µM; stronger effect = lower value
# Method in brief: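 Cell-based, HFFs, 1000 cells/well, 16 h 37C; cpds in DMSO + HCMV-luc, MOI 1 PFU/cell; 72 h 37C; OneGlo luminescence after 5 min RT; norm. to buffer vs Salinomycin 10uM.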
# % is scaled to controls: 0 for no effect and ±100 for the full control effect.
row,SMILES,"activity change, negative = inhibition"
1,Cc1ccc(OC(=O)c2sc(Cl)nc2C)cc1C,inconclusive: -58.4%
2,COC(=O)[C@]1(Cc2ccccc2)N[C@H](c2ccc(-c3cc(C(C)=O)cs3)cc2)[C@@H]2C(=O)N(C)C(=O)[C@@H]21,inactive: 17.8%
3,Cc1cc(C)nc(NS(=O)(=O)c2ccc(N/C=C/C(=O)c3ccc(Cl)cc3)cc2)n1,inconclusive: -47.2%
4,CC1CCN(c2ccc(/C=C(\C#N)c3nn(-c4ccccc4)c(N)c3C#N)cc2[N+](=O)[O-])CC1,inconclusive: -52.7%
5,COc1ccc(CN(C)CC(=O)Nc2cc3oc4ccccc4c3cc2OC)c(OC)c1,inactive: -20.2%
6,CCN1CCc2c(sc(NC(=O)c3ccc(S(=O)(=O)N(C)C4CCCCC4)cc3)c2C(N)=O)C1,inconclusive: -48.7%
7,CC(=O)O[C@]1(C(C)=O)CC[C@H]2[C@@H]3C=C(Cl)C4=CC(=O)[C@@H]5C[C@@H]5[C@]4(C)[C@H]3CC[C@@]21C,inconclusive: -49.9%
8,COc1ccc(OC)c(C2C(C(=O)c3ccccc3)=C(C)Nc3nc4ccccc4n32)c1 (centres undefined),inconclusive: -54.8%
9,Cc1ccccc1OCC(=O)Nc1ccc(NC(=O)c2ccco2)cc1,active: -79.7%
10,Cc1ccc(C(=O)CSc2ncnc3sc4c(c23)CCCC4)cc1,inconclusive: -43.7%
11,CC1CCN(C(=O)C2CCC(CNS(=O)(=O)c3ccc4c(c3)C(C)(C)C(=O)N4C)CC2)CC1 (centres undefined),inconclusive: -41.4%
12,Cc1ccc(NC(=O)C(C)NS(=O)(=O)c2ccc(F)cc2)cc1C (centres undefined),inconclusive: -41.5%
13,O=C1CN=C(c2ccccc2F)c2cc(Cl)ccc2N1,inconclusive: -49.3%
14,COc1cc(OC)cc(C(=O)Nc2ccc3nc4c(c(Nc5ccc(OC)c(OC)c5)c3c2)CCCC4)c1,active: -105%
15,O=C(O)C1CCCN(CCC=C(c2ccccc2)c2ccccc2)C1 (centres undefined),inconclusive: -57.8%
16,CCOC(=O)Nc1ccc(C(=O)/C=C/c2ccccc2)cc1,inactive: 0%
17,O=C1N(c2ccccc2)C[C@@H]2C[C@@H](c3cccs3)N3CCC[C@@]123,inconclusive: -43.8%
18,CCOc1ccc(NC(=O)Nc2ccc(Cc3ccncc3)cc2)cc1,inconclusive: -54.1%
19,CN(C)CCCN(C(=O)c1ccc(C(=O)c2ccccc2)cc1)c1nc2cc3c(cc2s1)OCO3,inconclusive: -49.4%
20,Cc1ccc(CSCCC(=O)N2CCN(c3ccc(F)cc3)CC2)cc1,inconclusive: -58%
21,COc1ccccc1CNC(=O)Cn1c(-c2ccc(F)cc2)cc(C(C)=O)c1C,inconclusive: 0%
22,CCN(CC)CCN(C(=O)c1ccco1)c1nc2c(C)c(C)ccc2s1,inconclusive: -55.6%
23,CSc1nsc(SC)c1NC(=O)OCCc1ccccn1,inconclusive: -47.5%
24,CC(=O)Nc1ccc(NC(=O)CN2C(=O)CC(c3ccco3)Sc3ccccc32)cc1 (centres undefined),active: -105%
25,Cn1c(SCc2ccc(C#N)cc2)nnc1-c1cccc(Cl)c1,inconclusive: -50.6%
26,O=C(Cc1cccs1)N/N=C/c1ccccc1,inactive: 55.2%
27,CCN(CC)S(=O)(=O)c1cccc(NC(=O)COC(=O)/C=C/c2cccs2)c1,inconclusive: -42%

row,SMILES,"activity change, negative = inhibition"
1,COC(=O)c1ccc(C)c(NC(=O)Cc2ccc([N+](=O)[O-])cc2)c1,inactive: -22%
2,COc1ccc2oc(=O)c(-c3nnc(NCc4ccco4)s3)cc2c1,inactive: 43%
3,COc1ccc(-n2c(SCC(=O)C(C)(C)C)nc3c(sc(=S)n3-c3ccccc3)c2=O)c(OC)c1,inconclusive: -59.4%
4,Cc1ccc(C(=O)NCc2ccncc2)cc1S(=O)(=O)N1CCCCC1,inconclusive: -57.6%
5,CC(C)Oc1cccc(C(=O)C2CCCN(S(C)(=O)=O)C2)c1 (centres undefined),inactive: -14.6%
6,Cc1ccc(S(=O)(=O)CC(=O)Nc2ccc3nc(C)sc3c2)cc1,inactive: -18%
7,CN(CC(=O)Nc1ccccc1Cl)C(=O)c1ccc(Cl)c(S(=O)(=O)N2CCCCCC2)c1,inconclusive: -40.2%
8,Cc1ccc(CNC(=O)CCc2c(C)nc3c(-c4ccc(F)cc4)c(C)nn3c2C)cc1,inactive: 1.98%
9,O=C(O)c1ccccc1NC(=O)c1cc(-c2ccccc2)nc2ccccc12,inconclusive: -48.6%
10,CCCCOc1c(Br)cc(CNCCCN2CCOCC2)cc1OC,inactive: -23.8%
11,Clc1ccc(CSc2ccc(-c3ccccn3)nn2)cc1,inactive: -28.3%
12,Cc1ccc(/C=C/c2onc(C)c2S(=O)(=O)N2CCC(C(=O)Nc3ccc(OC(F)(F)F)cc3)CC2)cc1,inconclusive: -56.7%
13,C(=N\Nc1ccc2ccccc2n1)/c1ccc2c(c1)OCCO2,active: -89.7%
14,Cc1ccc(-c2nc(-c3ccncc3)no2)cc1Cl,inactive: 97.5%
15,Cc1cccc(OCc2nnc(SCC(=O)NC3CCCCC3)n2C)c1,inconclusive: -53.5%
16,CC(CC(=O)O)CC(=O)Nc1cc([N+](=O)[O-])ccc1O (centres undefined),inactive: -28.4%
17,CCCCOc1ccc(C2CCC(C(C)=O)C(C)C2)cc1 (centres undefined),inactive: -27.7%
18,COc1ccc(N2C(=O)c3ccccc3C2=O)cc1,inconclusive: -44.1%
19,C(=Cc1cnc2ccccc2n1)c1ccc2c(c1)OCO2,active: -80.8%
20,O=C(CSc1ncnc2c1cnn2-c1ccc(F)cc1)NCC1CCCO1 (centres undefined),inconclusive: -49.9%
21,CN(c1ccccc1)S(=O)(=O)c1cccc(NC(=O)Cc2n[nH]c(=O)c3ccccc23)c1,inconclusive: -44.2%
22,O=C1/C(=C\c2cccc([N+](=O)[O-])c2O)SC(=S)N1Cc1ccccc1,active: -63.6%
23,Cn1cnc(S(=O)(=O)N2CCN(C(c3ccc(F)cc3)c3ccc(F)cc3)CC2)c1,inconclusive: -49.2%
24,Cc1ccc(Cn2ccc(C3CC3)n2)cc1,inconclusive: -43%
25,O=C(Cc1c(O)c2ccccc2[nH]c1=O)NC1CCCCCC1,inconclusive: -42.3%
26,O=C1/C(=C/c2cccs2)SC(=S)N1C1CCS(=O)(=O)C1 (centres undefined),active: -80.8%
27,CN(N)c1ccc2c(C(F)(F)F)cc(C(F)(F)F)nc2n1,inconclusive: -45.7%

# 3 neighbouring entries already listed:
row,SMILES,"activity change, negative = inhibition"
22,O=C1/C(=C\c2cccc([N+](=O)[O-])c2O)SC(=S)N1Cc1ccccc1,active: -63.6%
23,Cn1cnc(S(=O)(=O)N2CCN(C(c3ccc(F)cc3)c3ccc(F)cc3)CC2)c1,inconclusive: -49.2%
24,Cc1ccc(Cn2ccc(C3CC3)n2)cc1,inconclusive: -43%
